Measurements from the M2OR odorant receptor database.
Only a part is listed here, and it is no random draw. Calls are pooled over several reports, among them a noisy single-well screen.

Columns and labels:
Details in all cases: stereoisomer not certain
UniProt Q8VGH1 = molecular target: T1, UniProt Q8VGH1
T1 sequence (whole entry): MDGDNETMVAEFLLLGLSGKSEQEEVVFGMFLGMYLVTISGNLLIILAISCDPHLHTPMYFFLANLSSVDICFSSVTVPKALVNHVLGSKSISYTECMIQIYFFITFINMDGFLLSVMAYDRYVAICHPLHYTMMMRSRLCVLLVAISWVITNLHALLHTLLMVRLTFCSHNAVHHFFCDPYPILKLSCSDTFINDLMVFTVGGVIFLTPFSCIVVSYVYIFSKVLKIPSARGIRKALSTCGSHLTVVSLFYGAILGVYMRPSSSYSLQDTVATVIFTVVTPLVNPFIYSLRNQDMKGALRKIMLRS
In short: (§1)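 Whether a receptor–molecule pair is responsive (active) rests on the original authors' judgment that its measured signal was statistically different from baseline. Pairs without that judgment are non-responsive (inactive). Sources used varied assay methods, commonly transient luciferase assays in mammalian cell lines.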

UniProt Q8VGJ1 = molecular target: T2, UniProt Q8VGJ1
T2 sequence (whole entry): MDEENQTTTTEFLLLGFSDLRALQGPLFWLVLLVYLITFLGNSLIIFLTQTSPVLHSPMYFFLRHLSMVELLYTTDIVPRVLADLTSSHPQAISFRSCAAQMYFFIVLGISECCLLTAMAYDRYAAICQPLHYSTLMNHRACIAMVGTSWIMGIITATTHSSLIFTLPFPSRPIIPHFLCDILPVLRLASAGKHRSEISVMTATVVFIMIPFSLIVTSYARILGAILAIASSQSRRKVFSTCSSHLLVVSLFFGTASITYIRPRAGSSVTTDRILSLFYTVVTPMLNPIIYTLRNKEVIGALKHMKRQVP
In short: as §1

UniProt Q8VGJ5 = molecular target: T3, UniProt Q8VGJ5
T3 sequence (whole entry): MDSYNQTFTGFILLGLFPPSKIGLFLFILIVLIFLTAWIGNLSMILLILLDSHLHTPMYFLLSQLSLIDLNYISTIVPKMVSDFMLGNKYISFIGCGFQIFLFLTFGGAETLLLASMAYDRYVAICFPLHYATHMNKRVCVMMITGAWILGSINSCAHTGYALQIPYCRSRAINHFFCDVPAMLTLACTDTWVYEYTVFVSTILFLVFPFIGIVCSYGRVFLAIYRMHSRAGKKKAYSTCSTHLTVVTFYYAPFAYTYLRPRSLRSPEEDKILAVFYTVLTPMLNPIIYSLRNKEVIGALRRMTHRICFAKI
In short: as §1

UniProt Q8VGL0 = molecular target: T4, UniProt Q8VGL0
T4 sequence (whole entry): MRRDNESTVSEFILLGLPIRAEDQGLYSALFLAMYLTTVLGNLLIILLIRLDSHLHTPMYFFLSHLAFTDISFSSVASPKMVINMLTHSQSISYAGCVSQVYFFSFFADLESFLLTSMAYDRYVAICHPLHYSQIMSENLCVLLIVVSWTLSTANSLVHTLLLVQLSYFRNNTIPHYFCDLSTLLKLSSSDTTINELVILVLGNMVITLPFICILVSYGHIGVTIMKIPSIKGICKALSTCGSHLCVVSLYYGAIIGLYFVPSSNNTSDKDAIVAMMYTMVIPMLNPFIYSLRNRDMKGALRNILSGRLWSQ
In short: as §1

UniProt Q8VGL7 = molecular target: T5, UniProt Q8VGL7
T5 sequence (whole entry): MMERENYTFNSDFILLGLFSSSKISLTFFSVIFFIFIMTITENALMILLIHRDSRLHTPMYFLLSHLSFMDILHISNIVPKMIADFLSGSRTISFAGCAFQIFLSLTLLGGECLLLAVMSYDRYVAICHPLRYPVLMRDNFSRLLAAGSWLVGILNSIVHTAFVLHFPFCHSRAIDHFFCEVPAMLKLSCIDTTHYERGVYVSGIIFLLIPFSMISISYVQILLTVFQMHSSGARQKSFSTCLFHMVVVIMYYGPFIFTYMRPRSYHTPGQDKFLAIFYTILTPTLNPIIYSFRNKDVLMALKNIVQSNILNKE
In short: as §1

UniProt Q8VGM2 = molecular target: T6, UniProt Q8VGM2
T6 sequence (whole entry): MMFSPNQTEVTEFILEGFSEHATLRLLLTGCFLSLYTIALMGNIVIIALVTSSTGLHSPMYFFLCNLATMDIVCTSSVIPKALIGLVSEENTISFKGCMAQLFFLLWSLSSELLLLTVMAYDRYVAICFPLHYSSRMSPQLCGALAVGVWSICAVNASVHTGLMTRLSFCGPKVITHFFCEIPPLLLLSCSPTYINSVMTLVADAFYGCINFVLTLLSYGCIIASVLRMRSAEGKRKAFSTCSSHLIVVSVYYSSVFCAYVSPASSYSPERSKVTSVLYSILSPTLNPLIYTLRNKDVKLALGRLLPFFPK
In short: as §1

UniProt Q8VGP6 = molecular target: T7, UniProt Q8VGP6
T7 sequence (whole entry): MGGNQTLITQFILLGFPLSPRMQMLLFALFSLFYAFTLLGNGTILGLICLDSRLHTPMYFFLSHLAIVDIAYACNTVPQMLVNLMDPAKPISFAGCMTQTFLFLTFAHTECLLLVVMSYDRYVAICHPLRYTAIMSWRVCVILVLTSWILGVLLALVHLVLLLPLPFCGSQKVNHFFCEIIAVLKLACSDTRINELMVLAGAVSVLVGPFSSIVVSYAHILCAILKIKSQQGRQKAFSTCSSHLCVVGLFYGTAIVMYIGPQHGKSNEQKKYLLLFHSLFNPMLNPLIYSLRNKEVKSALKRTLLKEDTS
In short: as §1

UniProt Q8VGQ3 = molecular target: T8, UniProt Q8VGQ3
T8 sequence (whole entry): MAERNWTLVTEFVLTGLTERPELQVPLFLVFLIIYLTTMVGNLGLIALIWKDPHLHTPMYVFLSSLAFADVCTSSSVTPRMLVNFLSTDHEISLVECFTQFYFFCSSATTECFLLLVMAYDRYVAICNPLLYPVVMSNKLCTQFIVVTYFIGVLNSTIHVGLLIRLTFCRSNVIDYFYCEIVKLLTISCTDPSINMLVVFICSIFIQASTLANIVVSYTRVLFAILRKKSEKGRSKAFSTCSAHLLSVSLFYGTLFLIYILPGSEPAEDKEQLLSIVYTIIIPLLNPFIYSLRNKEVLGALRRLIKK
In short: as §1

UniProt Q8VGT4 = molecular target: T9, UniProt Q8VGT4
T9 sequence (whole entry): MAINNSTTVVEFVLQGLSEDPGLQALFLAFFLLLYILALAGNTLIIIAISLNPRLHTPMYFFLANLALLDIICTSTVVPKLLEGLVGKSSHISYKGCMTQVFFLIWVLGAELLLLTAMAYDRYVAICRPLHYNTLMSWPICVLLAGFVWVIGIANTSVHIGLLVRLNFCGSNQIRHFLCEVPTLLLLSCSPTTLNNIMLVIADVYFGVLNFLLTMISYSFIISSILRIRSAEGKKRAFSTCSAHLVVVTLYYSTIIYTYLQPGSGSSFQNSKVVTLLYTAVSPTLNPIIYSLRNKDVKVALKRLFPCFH
In short: as §1

UniProt Q8VGV1 = molecular target: T10, UniProt Q8VGV1
T10 sequence (whole entry): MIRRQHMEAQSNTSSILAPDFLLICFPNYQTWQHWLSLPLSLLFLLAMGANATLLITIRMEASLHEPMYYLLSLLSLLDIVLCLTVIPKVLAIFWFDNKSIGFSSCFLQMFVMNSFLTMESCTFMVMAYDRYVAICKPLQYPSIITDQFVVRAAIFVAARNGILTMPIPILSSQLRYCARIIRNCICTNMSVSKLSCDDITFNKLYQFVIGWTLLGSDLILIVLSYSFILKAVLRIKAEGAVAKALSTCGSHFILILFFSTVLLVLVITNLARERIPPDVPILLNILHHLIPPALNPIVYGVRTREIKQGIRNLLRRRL
In short: as §1

UniProt Q8VGX5 = molecular target: T11, UniProt Q8VGX5
T11 sequence (whole entry): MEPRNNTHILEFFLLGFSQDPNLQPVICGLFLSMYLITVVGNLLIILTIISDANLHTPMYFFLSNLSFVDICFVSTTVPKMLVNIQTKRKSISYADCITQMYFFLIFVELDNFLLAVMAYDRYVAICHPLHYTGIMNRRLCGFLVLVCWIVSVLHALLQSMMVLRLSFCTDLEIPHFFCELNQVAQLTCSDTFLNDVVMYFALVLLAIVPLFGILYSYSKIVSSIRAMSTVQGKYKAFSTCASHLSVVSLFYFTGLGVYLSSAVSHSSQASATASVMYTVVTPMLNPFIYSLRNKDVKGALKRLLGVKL
In short: as §1

UniProt Q8VGX8 = molecular target: T12, UniProt Q8VGX8
T12 sequence (whole entry): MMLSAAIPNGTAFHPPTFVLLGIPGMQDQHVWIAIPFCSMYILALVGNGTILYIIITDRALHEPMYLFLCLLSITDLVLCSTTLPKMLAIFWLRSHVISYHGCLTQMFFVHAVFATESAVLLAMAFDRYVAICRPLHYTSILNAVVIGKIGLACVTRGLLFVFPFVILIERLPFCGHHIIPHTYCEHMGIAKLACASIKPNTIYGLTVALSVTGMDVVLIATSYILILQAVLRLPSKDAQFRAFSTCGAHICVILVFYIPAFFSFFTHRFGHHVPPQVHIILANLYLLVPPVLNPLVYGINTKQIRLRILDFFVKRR
In short: as §1

UniProt Q8VGY6 = molecular target: T13, UniProt Q8VGY6
T13 sequence (whole entry): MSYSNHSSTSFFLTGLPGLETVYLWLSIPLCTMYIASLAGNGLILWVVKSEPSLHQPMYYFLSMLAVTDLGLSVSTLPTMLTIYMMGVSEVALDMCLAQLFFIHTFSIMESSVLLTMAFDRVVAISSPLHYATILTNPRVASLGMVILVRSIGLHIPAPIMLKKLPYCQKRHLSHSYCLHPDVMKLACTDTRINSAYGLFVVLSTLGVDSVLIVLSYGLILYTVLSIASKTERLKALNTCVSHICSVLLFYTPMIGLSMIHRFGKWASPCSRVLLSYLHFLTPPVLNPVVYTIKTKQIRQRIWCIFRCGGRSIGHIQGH
In short: as §1

UniProt Q8VGZ2 = molecular target: T14, UniProt Q8VGZ2
T14 sequence (whole entry): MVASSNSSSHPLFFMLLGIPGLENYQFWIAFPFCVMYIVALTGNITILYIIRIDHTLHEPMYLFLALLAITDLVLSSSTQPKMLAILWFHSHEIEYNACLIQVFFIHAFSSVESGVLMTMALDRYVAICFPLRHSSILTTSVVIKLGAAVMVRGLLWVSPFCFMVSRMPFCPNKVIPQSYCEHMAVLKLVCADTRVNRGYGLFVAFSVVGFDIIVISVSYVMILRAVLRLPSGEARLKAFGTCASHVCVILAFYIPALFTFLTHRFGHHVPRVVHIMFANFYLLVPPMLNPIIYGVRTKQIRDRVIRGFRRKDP
In short: as §1

Measured: odorant receptor agonist call;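 also: active if original authors judged signal statistically different from baseline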

O=C1CCCCC1
active: UniProt Q8VGJ5 | UniProt Q8VGL0 | UniProt Q8VGL7 | UniProt Q8VGM2 | UniProt Q8VGT4 | UniProt Q8VGX5
inactive: all other assays above
